For part of these data: No signal at the amounts used counts as a negative. For part of these data: Protein sequences can lack the tags named with them.
Assays:
interleukin-6 = interleukin-6 (UniProt P05231); assay: activity in cells; conditions: no inhibition of IL-6-driven STAT-sPAP reporter in HepG2, purified recombinant protein, dose not given here
[1] = molecular target: T1, oncostatin M (hOSM, mature) (Homo sapiens) (UniProt P13725); assay: filter binding; conditions: 2'-F pyrimidines; aptamer generated to CD95 ligand, control; purified recombinant protein
T1 sequence: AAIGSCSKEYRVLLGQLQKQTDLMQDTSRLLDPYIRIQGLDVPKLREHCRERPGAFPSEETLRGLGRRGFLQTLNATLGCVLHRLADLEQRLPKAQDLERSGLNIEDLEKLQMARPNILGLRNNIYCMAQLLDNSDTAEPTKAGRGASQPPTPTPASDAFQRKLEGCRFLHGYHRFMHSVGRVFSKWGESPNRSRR

Sequences of proteins named here, by UniProt entry; tags and fusion partners are left off. Residues count along the entry.
UniProt P05231, 30-212: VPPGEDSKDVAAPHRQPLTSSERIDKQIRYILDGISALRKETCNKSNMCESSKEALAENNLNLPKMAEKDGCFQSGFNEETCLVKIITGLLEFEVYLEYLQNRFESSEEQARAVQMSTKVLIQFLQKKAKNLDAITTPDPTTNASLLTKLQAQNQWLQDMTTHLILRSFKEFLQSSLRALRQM

Sequence	functional effect of the aptamer (interleukin-6; 2'-F C and U (2'-F pyrimidines), 2'-OH purines)	Kd [1] [nM]	functional effect of the aptamer (interleukin-6; 2'-F pyrimidines)
GGGAGGACGAUGCGGAUCGCCCUGAACCGGCCCAGCAGACUGCUGACGGCACGAUCAGACGACUCGCCCGA [ADR58]	not active	–	–
GGGAGGACGAUGCGGUUAUACUAAGCUGCGGUUAGCGACAGCCCUCCCUAGCGCCUCAGACGACUCGCCCGA [ADR147 (aptamer raised to CD95 ligand)]	–	> 1000	not active

Reference: patent US6706266
